For three molecules, binding results are on record in article PMC13229503, “Dissecting mechanisms of ligand binding and conformational changes in the glutamine-binding protein” (eLife, 2026).

Where a chain is given by its changes, count along the chain named. No constants are given. Whether binding was seen depends on the method and setting.

Test in all cases: SEC; Superdex 75 Increase 10/300 GL; protein refolded from 6 M guanidine hydrochloride by dialysis in PBS pH 7.4, 1 mM DTT; elution volume and peak shape compared before and after refolding; both purified
For orientation: Size exclusion chromatography separates by hydrodynamic size, large species first.

The target of test [1] is wild-type glutamine-binding protein GlnBP (E. coli) (UniProt P0AEQ3).
The target in test [2] is GlnBP(111C-192C) double-cysteine variant (E. coli) (UniProt P0AEQ3).
Test [3] concerns the target GlnBP(59C-130C) double-cysteine variant (E. coli) (UniProt P0AEQ3).

B1: wild-type glutamine-binding protein GlnBP (protein, UniProt P0AEQ3 23-248)
chain: ADKKLVVATDTAFVPFEFKQGDKYVGFDVDLWAAIAKELKLDYELKPMDFSGIIPALQTKNVDLALAGITITDERKKAIDFSDGYYKSGLLVMVKANNNDVKSVKDLDGKVVAVKSGTGSVDYAKANIKTKDLRQFPNIDNAYMELGTNRADAVLHDTPNILYFIKTAGNGQFKAVGDSLEAQQYGIAFPKGSDELRDKVNGALKTLRENGTYNEIYKKWFGTEPK
As to B1, the binding result in test [1] was “no binding”.

B2: GlnBP(111C-192C) double-cysteine variant (protein, UniProt P0AEQ3 23-248)
chain: B1 chain with V111C, G192C
As for B2, the binding entry in test [2] is given as “no binding”.

B3: GlnBP(59C-130C) double-cysteine variant (protein, UniProt P0AEQ3 23-248)
chain: B1 chain with T59C, T130C
Regarding B3, the binding entry in test [3] is reported as “no binding”.
